These are yes or no findings as the source states them, for the method shown. Binding seen in cells or lysates may run through a third protein. Some binding calls cover weakened binding; strength is not graded here.
Legend:
[1] = molecular target: Canine NCX1.1 with CFP or YFP inserted at amino acid 266 (WT NCX1 FRET sensor) (canine) (UniProt P23685); experiment: FRET or BRET; intermolecular FRET between CFP- and YFP-tagged NCX1 in live, transiently transfected NRVMs; Tyrode's buffer, room temperature; untreated or palmitic acid (20 μM, 4 h)
[2] = molecular target: Canine NCX1.1 with CFP or YFP inserted at amino acid 266 (WT NCX1 FRET sensor) (canine) (UniProt P23685); experiment: FRET or BRET; intermolecular FRET between CFP- and YFP-tagged NCX1 in live, transiently transfected HEK293 cells (and zDHHC5 KO cells); Tyrode's buffer, room temperature; treatments: 2-BP, SDS, MβCD, PalmB, ML348, ML349, Na-free, Ca-free, XIP peptides, PIP2 depletion
[3] = molecular target: K229Q XIP peptide, NCX1 219-238, with N-terminal biotin (UniProt P23685); experiment: pull-down; biotinylated XIP peptide with lysates of HEK cells expressing YFP fusions of NCX1 f-loop regions; captured on Streptavidin-Sepharose, eluted with SDS-PAGE loading buffer, western blot; only the target purified

Amino acid sequences for entries named in this document (tags omitted). A change or cut given only in a name is not applied to a line headed by its entry. Chains listed by the source or under a name are the forms on record and can include a tag or linker.
UniProt P23685: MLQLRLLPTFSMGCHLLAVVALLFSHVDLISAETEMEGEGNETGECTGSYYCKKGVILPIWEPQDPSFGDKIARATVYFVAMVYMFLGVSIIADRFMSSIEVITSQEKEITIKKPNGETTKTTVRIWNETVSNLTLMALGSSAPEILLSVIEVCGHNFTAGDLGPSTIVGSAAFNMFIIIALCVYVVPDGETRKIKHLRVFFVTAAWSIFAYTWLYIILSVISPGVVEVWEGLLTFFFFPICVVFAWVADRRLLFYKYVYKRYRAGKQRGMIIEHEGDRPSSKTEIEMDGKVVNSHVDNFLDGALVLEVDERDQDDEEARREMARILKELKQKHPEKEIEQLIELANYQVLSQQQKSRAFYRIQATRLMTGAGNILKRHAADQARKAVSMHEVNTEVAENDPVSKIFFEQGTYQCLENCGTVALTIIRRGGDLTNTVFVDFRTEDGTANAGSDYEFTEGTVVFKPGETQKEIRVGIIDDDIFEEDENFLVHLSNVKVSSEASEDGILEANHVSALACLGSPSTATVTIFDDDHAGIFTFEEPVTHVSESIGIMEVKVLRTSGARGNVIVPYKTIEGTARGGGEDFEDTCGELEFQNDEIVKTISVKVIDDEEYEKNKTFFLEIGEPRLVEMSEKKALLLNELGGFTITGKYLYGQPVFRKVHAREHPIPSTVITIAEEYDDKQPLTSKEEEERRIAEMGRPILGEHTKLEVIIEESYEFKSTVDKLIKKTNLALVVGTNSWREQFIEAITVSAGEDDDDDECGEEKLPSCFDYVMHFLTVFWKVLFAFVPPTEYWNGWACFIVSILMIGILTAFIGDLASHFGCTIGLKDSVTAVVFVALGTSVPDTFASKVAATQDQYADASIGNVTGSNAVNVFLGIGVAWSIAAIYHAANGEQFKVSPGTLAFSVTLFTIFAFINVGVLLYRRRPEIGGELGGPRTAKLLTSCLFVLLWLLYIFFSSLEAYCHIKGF
K229Q XIP peptide, NCX1 219-238, with N-terminal biotin (P23685, form named): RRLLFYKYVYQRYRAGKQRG

Row | binding [1] | binding [2] | binding [3] | Substance
1 | binds | binds | – | Canine NCX1.1 with CFP or YFP inserted at amino acid 266 (WT NCX1 FRET sensor) (from UniProt P23685 33-970)
2 | – | – | binds | YFP-NCX1 266-765 (YFP-tagged WT NCX1 f-loop) (from UniProt P23685 298-797) (domain or fragment)
